# Values of other authors, collected in US6080425A, “Boron compounds and complexes as skin-rejuvenating agents” (TopGene, Inc., priority 1998, dated 2000).
# At least one compound was matched to its structure with a doubt left.
# Test system: glycine receptor chloride channels
# Details: cited from earlier work
smiles,measurement,value
N#C[B-](c1ccccc1)(c1ccccc1)c1ccccc1 [cyanotriphenylborate],block of glycine receptor chloride channels,subtype-specific blockers
